These are yes or no findings as the source states them, for the method shown. Some results given as binding are weak or reduced against the parent protein; the word gives no strength.
Key:
[1] = biological target: marmoset CD100 (marmoset); assay: ELISA and flow cytometry; BIACORE
[2] = biological target: marmoset CD100 (marmoset); assay: ELISA, flow cytometry, BIACORE (Example 5)
[3] = biological target: marmoset CD100 (marmoset); assay: flow cytometry blocking assay of FIG. 1: CD100 pre-incubated with the MAb, then added to 293/Plexin cells; blocked partner Plexin B1
[4] = biological target: rat SEMA4D (cellular target on lysed whole blood cells of Sprague-Dawley rats) (rat); assay: flow cytometry-based saturation assay on lysed whole blood of male Sprague-Dawley rats after a single intravenous injection of MAb 2503
[5] = biological target: rat SEMA4D (cellular target on lysed whole blood cells of Sprague-Dawley rats) (rat); assay: flow cytometry-based saturation assay on lysed whole blood of female Sprague-Dawley rats after a single intravenous injection of MAb 2503

binding [1]: binds | binding [2]: binds | binding [3]: binds | binding [4]: binds | binding [5]: binds
B1: MAb 2503 (antibody, V domains shown)
VH: QVQLVQSGAEVKKPGSSVKVSCKASGYSFSDYYMHWVRQAPGQGLEWMGQINPTTGGASYNQKFKGKATITVDKSTSTAYMELSSLRSEDTAVYYCARYYYGRHFDVWGQGTTVTVSS
VL: DIVMTQSPDSLAVSLGERATINCKASQSVDYDGDSYMNWYQQKPGQPPKLLIYAASNLESGVPDRFSGSGSGTDFTLTISSLQAEDVAVYYCQQSNEDPYTFGQGTKLEIK

From US20170306017A1
